Experimental data reported in publication PMC6839751.
No constants are given. Whether binding was seen depends on the method and setting. In cells and extracts the contact can be indirect. Some binding calls cover weakened binding; strength is not graded here.

Sequences of proteins named here, by UniProt entry; tags and fusion partners are left off.
UniProt O00327: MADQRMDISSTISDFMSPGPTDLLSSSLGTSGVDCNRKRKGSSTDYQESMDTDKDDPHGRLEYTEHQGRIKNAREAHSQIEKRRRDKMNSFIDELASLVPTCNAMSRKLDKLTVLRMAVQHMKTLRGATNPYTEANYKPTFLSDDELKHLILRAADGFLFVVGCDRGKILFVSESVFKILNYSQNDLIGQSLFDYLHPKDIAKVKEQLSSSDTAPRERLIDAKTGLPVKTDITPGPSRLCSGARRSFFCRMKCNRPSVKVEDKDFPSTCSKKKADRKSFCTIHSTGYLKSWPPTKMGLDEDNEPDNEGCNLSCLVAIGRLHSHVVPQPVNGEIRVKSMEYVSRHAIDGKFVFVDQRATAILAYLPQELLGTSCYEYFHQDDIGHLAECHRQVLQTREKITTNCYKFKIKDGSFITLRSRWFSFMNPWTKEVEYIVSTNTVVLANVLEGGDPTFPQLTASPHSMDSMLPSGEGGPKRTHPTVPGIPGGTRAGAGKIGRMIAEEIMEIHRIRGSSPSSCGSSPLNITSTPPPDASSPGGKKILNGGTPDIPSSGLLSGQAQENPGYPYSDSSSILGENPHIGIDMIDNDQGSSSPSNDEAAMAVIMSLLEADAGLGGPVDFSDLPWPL

T1: circadian locomotor output cycles kaput (CLOCK) (human (endogenous in OSCC cell lines)) (UniProt O15516)
T1 sequence: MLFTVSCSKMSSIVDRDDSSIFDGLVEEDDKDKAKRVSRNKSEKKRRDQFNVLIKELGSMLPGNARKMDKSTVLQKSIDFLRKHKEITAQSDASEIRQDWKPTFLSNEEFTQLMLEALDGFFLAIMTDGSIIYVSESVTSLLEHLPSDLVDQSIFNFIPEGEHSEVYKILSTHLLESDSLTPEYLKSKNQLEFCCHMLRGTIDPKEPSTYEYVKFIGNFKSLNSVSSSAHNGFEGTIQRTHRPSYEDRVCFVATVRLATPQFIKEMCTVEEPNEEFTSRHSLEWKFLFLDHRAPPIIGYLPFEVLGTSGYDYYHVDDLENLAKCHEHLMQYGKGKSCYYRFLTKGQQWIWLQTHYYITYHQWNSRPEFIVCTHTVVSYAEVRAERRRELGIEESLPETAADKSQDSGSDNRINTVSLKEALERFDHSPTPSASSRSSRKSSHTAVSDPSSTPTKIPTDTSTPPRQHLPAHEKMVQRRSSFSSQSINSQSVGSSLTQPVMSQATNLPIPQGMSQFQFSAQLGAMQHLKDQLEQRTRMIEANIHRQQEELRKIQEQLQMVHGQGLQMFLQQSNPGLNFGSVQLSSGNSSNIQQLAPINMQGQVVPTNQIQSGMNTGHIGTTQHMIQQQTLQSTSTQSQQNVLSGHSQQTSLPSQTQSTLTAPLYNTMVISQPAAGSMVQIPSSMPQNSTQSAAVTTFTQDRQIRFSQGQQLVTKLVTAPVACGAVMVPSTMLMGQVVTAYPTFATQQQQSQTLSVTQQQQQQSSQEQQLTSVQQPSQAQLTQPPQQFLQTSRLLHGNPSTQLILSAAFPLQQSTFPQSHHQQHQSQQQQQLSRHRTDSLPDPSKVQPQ


Legend:
[1] = target: T1, circadian locomotor output cycles kaput (CLOCK) (human (endogenous in OSCC cell lines)); assay: co-IP; nuclear protein extracts of synchronized human OSCC cells across a circadian cycle; magnetic beads preloaded with anti-PER2, anti-CLOCK or anti-BMAL1 antibody (IgG as negative control), 4 °C for 4 h; Western blot; also in CRY1-knockdown or CRY2-knockdown CAL27 cells (complex significantly decreased)
[2] = target: brain and muscle arnt-like 1 (BMAL1) (human (endogenous in OSCC cell lines)) (UniProt O00327); assay: as above

Row | Molecule | binding [1] | binding [2]
1 | brain and muscle arnt-like 1 (BMAL1) (from UniProt O00327 1-626) | binds | –
2 | circadian locomotor output cycles kaput (CLOCK) (protein, UniProt O15516 1-846) MLFTVSCSKMSSIVDRDDSSIFDGLVEEDDKDKAKRVSRNKSEKKRRDQFNVLIKELGSMLPGNARKMDKSTVLQKSIDFLRKHKEITAQSDASEIRQDWKPTFLSNEEFTQLMLEALDGFFLAIMTDGSIIYVSESVTSLLEHLPSDLVDQSIFNFIPEGEHSEVYKILSTHLLESDSLTPEYLKSKNQLEFCCHMLRGTIDPKEPSTYEYVKFIGNFKSLNSVSSSAHNGFEGTIQRTHRPSYEDRVCFVATVRLATPQFIKEMCTVEEPNEEFTSRHSLEWKFLFLDHRAPPIIGYLPFEVLGTSGYDYYHVDDLENLAKCHEHLMQYGKGKSCYYRFLTKGQQWIWLQTHYYITYHQWNSRPEFIVCTHTVVSYAEVRAERRRELGIEESLPETAADKSQDSGSDNRINTVSLKEALERFDHSPTPSASSRSSRKSSHTAVSDPSSTPTKIPTDTSTPPRQHLPAHEKMVQRRSSFSSQSINSQSVGSSLTQPVMSQATNLPIPQGMSQFQFSAQLGAMQHLKDQLEQRTRMIEANIHRQQEELRKIQEQLQMVHGQGLQMFLQQSNPGLNFGSVQLSSGNSSNIQQLAPINMQGQVVPTNQIQSGMNTGHIGTTQHMIQQQTLQSTSTQSQQNVLSGHSQQTSLPSQTQSTLTAPLYNTMVISQPAAGSMVQIPSSMPQNSTQSAAVTTFTQDRQIRFSQGQQLVTKLVTAPVACGAVMVPSTMLMGQVVTAYPTFATQQQQSQTLSVTQQQQQQSSQEQQLTSVQQPSQAQLTQPPQQFLQTSRLLHGNPSTQLILSAAFPLQQSTFPQSHHQQHQSQQQQQLSRHRTDSLPDPSKVQPQ | – | binds
